Test results published in PMC10883266, “TTLL12 is required for primary ciliary axoneme formation in polarized epithelial cells” (EMBO Reports, 2023).
These are yes or no findings as the source states them, for the method shown. In cells and extracts the contact can be indirect. Binding calls can cover weak binding; strength is not graded here. Where a sequence is shown, tags or fusion partners need not be part of it.

Target: T1, GFP-Rab19 (UniProt A4D1S5)
T1 sequence: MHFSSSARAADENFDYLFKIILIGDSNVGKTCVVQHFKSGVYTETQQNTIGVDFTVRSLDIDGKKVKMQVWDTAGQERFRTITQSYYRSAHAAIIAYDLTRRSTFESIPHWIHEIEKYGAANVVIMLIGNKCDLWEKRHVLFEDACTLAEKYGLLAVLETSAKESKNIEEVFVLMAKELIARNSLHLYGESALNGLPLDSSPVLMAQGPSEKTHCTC
Assay: co-IP; GFP-Rab19 or GFP-only immunoprecipitated from MDCK cells; precipitate blotted for endogenous TTLL12

- binding: binds
Substance: endogenous TTLL12 (MDCK cells) (Canis familiaris (endogenous in MDCK II))
